Reference: PMC7419509
These are yes or no findings as the source states them, for the method shown. In cells and extracts the contact can be indirect. A yes stands for co-enrichment or nearness to the bait. Other partners may have been found.

Amino acid sequences for entries named in this document (tags omitted).
UniProt Q6R327: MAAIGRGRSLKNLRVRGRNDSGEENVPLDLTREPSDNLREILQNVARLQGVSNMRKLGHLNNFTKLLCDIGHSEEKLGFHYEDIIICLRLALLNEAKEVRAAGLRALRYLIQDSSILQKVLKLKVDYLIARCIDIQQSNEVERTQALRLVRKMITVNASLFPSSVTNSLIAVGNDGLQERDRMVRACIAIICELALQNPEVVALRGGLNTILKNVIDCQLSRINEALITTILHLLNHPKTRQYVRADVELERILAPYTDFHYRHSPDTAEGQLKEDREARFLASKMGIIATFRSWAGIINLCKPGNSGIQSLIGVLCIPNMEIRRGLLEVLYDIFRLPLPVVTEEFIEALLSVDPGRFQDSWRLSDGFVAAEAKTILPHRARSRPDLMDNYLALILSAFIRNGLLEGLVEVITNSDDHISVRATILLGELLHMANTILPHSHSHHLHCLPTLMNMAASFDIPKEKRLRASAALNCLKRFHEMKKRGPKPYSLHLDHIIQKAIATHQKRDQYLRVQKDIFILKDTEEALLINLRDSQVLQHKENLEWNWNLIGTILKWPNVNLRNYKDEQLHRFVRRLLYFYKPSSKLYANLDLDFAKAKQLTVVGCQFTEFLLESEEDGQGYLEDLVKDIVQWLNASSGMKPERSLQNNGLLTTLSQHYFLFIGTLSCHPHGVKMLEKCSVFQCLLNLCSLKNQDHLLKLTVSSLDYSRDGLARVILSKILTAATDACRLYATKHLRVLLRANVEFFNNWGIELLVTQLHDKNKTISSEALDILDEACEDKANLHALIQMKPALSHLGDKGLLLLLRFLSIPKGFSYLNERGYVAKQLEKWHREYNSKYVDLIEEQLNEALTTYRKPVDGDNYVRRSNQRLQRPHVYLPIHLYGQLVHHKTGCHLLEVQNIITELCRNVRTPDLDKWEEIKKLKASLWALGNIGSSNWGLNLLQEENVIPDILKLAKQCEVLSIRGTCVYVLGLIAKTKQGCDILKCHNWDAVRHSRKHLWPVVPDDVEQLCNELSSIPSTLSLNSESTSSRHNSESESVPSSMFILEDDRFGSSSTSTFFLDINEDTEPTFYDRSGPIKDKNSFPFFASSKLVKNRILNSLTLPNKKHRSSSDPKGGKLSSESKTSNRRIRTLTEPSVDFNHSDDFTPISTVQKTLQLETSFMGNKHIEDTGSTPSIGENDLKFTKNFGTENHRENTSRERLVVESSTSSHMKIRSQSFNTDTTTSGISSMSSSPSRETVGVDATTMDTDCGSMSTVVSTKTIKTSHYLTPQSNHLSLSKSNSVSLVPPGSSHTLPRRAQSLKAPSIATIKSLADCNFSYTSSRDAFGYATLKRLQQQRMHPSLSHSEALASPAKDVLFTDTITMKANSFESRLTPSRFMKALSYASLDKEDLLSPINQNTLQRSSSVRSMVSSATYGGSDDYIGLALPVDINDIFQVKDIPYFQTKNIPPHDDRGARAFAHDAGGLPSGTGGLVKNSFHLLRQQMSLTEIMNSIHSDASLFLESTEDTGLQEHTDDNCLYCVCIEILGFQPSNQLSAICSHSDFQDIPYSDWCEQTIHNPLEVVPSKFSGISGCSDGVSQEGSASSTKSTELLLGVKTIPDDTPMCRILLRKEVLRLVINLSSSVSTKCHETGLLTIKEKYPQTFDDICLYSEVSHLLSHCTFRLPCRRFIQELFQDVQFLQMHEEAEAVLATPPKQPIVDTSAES

Target: RICTOR (human (endogenous in HT1080 and HeLa)) (UniProt Q6R327)
Test: affinity purification with mass spectrometry; immunoprecipitation with anti-RICTOR antibody, binding proteins analysed by LC-MS/MS

Substance: TMBIM6 (from UniProt P55061 1-237)
- binding: binds
